Laboratory results taken from the supplement of paper PMC10849652.
The list shows a part of the results.

Sequences of proteins named here, by UniProt entry; tags and fusion partners are left off. A change or cut given only in a name is not applied to a line headed by its entry.
UniProt Q9H4A5: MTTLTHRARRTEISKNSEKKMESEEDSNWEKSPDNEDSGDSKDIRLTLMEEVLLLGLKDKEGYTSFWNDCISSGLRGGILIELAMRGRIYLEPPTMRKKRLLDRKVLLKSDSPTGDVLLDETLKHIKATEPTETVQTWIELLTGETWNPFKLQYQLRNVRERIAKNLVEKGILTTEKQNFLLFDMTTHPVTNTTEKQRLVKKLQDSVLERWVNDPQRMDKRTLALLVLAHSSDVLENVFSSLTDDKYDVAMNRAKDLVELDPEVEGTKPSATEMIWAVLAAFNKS
UniProt Q9NWU2, whole entry, looked up: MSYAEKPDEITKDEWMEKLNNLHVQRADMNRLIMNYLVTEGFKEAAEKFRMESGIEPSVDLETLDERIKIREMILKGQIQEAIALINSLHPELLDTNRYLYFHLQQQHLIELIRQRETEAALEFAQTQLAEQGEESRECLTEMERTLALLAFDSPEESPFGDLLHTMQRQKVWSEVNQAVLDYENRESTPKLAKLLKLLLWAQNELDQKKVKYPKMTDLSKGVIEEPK
UniProt Q9NS18: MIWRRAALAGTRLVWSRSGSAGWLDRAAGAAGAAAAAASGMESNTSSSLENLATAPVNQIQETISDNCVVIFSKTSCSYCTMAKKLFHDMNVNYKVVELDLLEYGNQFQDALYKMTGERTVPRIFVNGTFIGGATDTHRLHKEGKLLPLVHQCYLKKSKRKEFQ
UniProt Q53EU6: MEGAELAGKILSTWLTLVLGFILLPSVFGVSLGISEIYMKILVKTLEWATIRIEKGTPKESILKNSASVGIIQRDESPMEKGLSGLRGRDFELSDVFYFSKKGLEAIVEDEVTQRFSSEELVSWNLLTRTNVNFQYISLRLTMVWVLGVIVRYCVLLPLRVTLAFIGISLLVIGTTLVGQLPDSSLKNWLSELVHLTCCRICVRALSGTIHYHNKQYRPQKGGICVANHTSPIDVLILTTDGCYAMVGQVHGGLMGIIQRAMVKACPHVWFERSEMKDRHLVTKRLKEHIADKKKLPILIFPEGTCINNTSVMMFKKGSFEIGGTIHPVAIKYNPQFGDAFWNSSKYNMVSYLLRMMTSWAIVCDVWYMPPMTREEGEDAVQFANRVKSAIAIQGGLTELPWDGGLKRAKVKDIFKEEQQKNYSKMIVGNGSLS
UniProt Q9HCN4, whole entry, looked up: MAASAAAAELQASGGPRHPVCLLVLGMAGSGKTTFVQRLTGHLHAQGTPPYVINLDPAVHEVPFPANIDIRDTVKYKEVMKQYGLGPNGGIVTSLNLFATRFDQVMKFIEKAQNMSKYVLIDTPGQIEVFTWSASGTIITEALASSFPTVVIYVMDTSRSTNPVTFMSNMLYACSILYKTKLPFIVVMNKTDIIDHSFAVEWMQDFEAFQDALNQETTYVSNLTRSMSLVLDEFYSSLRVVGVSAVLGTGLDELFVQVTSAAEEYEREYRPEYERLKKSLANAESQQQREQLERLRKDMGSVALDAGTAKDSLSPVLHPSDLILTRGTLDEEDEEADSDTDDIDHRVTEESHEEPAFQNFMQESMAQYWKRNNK
UniProt O60547: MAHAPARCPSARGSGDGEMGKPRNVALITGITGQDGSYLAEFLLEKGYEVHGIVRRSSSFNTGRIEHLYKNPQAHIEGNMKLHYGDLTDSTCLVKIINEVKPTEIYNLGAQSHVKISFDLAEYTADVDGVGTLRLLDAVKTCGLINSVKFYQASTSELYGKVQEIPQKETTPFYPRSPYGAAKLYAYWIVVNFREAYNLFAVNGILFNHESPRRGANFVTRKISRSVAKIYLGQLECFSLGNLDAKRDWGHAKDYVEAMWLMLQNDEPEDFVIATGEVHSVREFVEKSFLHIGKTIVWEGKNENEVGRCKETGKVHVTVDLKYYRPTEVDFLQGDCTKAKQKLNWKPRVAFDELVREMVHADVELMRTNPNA
UniProt Q14691: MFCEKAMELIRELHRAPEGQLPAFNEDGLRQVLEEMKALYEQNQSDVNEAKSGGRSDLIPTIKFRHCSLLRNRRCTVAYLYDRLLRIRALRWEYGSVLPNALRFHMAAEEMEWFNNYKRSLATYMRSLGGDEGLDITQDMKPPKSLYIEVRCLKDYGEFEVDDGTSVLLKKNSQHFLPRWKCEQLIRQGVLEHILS
UniProt Q86V85: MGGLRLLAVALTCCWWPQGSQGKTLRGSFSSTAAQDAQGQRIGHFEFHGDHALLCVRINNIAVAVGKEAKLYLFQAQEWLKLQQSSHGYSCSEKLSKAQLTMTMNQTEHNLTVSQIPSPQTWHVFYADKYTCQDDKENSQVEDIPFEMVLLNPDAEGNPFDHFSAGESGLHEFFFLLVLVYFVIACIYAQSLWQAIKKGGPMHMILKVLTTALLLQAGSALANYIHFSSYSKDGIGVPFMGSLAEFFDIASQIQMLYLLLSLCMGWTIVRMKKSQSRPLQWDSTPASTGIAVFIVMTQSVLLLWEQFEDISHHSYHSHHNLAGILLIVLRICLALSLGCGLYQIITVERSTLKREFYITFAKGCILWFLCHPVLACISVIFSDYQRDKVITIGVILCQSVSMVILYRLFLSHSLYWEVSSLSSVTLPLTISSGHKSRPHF
UniProt Q9BYB4: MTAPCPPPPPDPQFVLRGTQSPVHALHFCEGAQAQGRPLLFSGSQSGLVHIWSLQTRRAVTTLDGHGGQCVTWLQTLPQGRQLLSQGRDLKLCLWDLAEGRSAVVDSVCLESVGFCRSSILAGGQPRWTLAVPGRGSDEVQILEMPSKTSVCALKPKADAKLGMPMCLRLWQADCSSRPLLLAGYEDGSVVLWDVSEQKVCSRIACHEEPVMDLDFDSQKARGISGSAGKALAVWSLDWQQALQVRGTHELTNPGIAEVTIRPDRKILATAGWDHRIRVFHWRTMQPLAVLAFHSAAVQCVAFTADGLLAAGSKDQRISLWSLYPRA
UniProt Q03113, whole entry, looked up: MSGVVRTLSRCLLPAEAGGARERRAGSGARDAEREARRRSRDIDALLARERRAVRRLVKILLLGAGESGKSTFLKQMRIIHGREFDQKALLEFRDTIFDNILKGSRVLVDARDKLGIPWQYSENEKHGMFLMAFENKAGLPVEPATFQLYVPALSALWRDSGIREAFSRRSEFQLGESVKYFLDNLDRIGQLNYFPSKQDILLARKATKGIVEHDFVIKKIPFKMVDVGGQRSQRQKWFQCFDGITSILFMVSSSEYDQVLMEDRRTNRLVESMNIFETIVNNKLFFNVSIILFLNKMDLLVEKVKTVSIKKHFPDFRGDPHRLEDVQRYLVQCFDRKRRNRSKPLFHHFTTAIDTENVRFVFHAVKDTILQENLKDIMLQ
UniProt Q9H9Y4: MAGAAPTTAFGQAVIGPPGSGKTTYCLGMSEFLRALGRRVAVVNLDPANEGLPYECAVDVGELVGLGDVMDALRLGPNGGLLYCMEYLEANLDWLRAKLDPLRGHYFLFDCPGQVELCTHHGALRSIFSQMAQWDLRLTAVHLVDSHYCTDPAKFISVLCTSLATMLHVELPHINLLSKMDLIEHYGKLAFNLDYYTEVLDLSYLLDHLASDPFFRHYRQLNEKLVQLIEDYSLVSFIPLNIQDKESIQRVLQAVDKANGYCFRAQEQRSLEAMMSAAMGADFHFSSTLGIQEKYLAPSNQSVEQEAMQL
UniProt Q4V328: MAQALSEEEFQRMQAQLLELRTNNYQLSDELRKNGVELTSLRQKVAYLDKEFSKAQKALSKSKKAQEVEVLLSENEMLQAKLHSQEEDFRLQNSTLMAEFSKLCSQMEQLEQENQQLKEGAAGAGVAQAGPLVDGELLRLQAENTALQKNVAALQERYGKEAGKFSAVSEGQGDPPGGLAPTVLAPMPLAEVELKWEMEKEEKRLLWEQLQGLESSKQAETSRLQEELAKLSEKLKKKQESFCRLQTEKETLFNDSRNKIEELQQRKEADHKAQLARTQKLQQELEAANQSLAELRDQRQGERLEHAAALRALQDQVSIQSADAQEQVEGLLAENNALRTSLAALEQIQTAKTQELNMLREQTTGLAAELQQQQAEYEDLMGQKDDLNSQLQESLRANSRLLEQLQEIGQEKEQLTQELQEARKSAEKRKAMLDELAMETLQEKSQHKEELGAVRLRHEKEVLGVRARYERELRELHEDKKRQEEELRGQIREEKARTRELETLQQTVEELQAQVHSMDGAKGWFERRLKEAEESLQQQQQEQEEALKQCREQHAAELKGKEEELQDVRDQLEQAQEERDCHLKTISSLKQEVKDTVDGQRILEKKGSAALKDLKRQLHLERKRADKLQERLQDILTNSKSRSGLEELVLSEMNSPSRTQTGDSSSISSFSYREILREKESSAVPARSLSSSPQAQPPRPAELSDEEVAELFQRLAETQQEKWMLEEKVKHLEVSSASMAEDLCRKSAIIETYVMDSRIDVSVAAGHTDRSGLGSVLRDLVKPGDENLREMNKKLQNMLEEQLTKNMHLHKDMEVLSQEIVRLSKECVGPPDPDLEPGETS
UniProt Q04760: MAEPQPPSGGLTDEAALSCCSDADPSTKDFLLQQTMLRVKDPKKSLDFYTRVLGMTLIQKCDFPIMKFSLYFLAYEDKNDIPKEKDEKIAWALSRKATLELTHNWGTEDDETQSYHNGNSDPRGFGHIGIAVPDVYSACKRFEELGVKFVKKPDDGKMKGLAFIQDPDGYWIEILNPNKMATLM
UniProt O14653: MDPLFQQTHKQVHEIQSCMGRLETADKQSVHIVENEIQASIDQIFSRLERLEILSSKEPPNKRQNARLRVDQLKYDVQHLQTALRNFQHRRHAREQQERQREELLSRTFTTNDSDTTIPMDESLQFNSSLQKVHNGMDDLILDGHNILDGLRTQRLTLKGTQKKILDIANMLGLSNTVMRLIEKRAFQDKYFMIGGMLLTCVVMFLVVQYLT
UniProt Q96IJ6: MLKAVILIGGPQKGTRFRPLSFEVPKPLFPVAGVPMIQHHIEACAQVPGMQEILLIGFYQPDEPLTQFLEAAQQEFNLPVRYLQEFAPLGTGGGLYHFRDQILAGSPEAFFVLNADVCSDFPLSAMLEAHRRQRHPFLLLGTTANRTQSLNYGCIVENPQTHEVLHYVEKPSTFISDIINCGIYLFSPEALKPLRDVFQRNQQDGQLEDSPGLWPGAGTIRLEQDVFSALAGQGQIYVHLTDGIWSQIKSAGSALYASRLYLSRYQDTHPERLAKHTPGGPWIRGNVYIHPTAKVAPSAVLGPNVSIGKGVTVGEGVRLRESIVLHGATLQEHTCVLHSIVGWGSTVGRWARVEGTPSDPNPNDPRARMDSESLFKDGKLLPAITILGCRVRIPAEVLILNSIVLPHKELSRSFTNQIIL
UniProt Q9HC38: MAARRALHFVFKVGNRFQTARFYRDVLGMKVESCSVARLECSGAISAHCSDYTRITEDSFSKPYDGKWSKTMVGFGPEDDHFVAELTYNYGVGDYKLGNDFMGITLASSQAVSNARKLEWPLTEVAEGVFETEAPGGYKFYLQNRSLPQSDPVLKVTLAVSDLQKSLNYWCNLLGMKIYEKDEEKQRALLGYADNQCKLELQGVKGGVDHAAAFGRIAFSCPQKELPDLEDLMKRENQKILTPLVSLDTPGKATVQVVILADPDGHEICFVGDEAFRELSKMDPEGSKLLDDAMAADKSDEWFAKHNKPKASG
UniProt Q08379: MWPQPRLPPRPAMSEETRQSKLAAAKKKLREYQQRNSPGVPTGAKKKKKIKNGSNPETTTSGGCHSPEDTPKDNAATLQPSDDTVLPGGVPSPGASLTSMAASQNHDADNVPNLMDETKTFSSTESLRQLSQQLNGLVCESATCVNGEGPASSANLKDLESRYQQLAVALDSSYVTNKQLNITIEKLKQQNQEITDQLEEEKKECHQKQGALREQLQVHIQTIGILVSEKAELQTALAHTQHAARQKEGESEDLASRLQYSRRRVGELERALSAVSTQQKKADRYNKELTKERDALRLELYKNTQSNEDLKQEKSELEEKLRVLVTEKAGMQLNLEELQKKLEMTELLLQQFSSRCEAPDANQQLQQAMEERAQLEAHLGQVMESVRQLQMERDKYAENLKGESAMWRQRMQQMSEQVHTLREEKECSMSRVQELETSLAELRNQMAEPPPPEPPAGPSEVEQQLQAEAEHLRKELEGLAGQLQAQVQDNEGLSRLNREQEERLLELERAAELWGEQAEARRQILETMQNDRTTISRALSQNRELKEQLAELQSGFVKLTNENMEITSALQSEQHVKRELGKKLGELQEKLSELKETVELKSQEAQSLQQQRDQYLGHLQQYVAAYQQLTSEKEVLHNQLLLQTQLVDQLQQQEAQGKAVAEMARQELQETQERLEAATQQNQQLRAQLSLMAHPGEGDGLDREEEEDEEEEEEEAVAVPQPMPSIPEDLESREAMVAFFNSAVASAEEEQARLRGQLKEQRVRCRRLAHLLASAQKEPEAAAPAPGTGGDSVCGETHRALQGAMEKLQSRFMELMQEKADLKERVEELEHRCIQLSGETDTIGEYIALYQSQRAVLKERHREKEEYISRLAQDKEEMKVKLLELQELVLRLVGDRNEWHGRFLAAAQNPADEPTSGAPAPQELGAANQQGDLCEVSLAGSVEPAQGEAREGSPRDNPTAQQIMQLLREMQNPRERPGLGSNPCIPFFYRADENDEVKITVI

Key:
Assay in all cases: log2 fold change, soluble protein after heating vs DMSO (PISA); higher = thermal stabilisation; K562 cells, 10 uM, 30 min; active = over 0.2 and 3.5 SD of the protein, either way, in both replicates (recomputed)
[1] = compound: NC(=O)Nc1cc(-c2cccc(F)c2)sc1C(=O)N[C@H]1CCCNC1
How it was run: (§1)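 K562 cells (2×10^6 cells/mL) were treated with 10 μM compound for 30 min, and aliquots were heated for 3 min over 48°C-58°C. Pooled aliquots were extracted in PBS with 0.5% NP-40 at 4°C, and the supernatant after 21,000xg for 90 min was measured by TMTpro 16plex LC-MS/MS with channel sums equalised. Reported thermal stability, relative to control samples and from duplicates, is a log2 fold change.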

[2] = compound: NC(=O)c1cnc(N[C@@H]2CCCC[C@@H]2N)nc1Nc1cccc(-n2nccn2)c1
How it was run: as §1

[3] = compound: NC1(c2ccc(-c3nc4ccn5c(=O)[nH]nc5c4cc3-c3ccccc3)cc2)CCC1
How it was run: as §1

[4] = compound: NCC(=O)Nc1ccc(-n2nc(C(F)(F)F)cc2-c2ccc3c(ccc4ccccc43)c2)cc1
How it was run: as §1

[5] = compound: Nc1ccccc1NC(=O)c1ccc(CNC(=O)OCc2cccnc2)cc1 [entinostat]
How it was run: as §1

[6] = compound: O=C(CCCCCCNC(=O)c1cnc(N(c2ccccc2)c2ccccc2Cl)nc1)NO [citarinostat]
How it was run: as §1

[7] = compound: O=C(O)c1ccc2c(c1)nc(Nc1cccc(Cl)c1)c1ccncc12 [silmitasertib]
How it was run: as §1

[8] = compound: c1cc(OCCN2CCCCC2)cc(-c2n[nH]c3ccc(-c4nnc[nH]4)cc23)c1
How it was run: as §1

[9] = compound: c1cn2cc(-c3ccc4cn[nH]c4c3)nc(Nc3ccc(N4CCOCC4)cc3)c2n1 [entospletinib]
How it was run: as §1

[10] = compound: O=C(CCCCCCC(=O)Nc1ccccc1)NO [vorinostat]
How it was run: as §1

[11] = compound: O=C1NC(=O)C(c2cnc3ccccn23)=C1c1cn2c3c(cc(F)cc13)CN(C(=O)N1CCCCC1)CC2
How it was run: as §1

Measured: log2 fold change

GPSM3 (UniProt Q9Y4H4)
inactive: [1] -0.028 | [2] 0.149 | [3] 0.099 | [4] 0.058 | [5] 0.078 | [6] 0.006 | [7] 0.152 | [8] -0.009 | [9] 0.063

GOLPH3L (UniProt Q9H4A5)
inactive: [1] -0.09 | [2] -0.057 | [3] 0.142 | [4] -0.158 | [5] 0.031 | [10] 0.405 | [7] 0.206 | [11] 0.323

GID8 (UniProt Q9NWU2)
inactive: [1] -0.038 | [2] -0.067 | [3] -0.041 | [4] -0.023 | [5] 0.056 | [10] -0.042 | [6] 0.022 | [7] 0.106 | [11] -0.049 | [8] -0.016 | [9] -0.004

GLRX2 isoform 2 (UniProt Q9NS18)
inactive: [1] -0.152 | [2] 0.086 | [3] 0.078 | [4] 0.155 | [5] -0.034 | [10] 0.004 | [6] 0.043 | [7] -0.218 | [11] -0.145 | [8] 0.009 | [9] -0.07

GMPR2 isoform 2 (UniProt Q9P2T1)
inactive: [1] -0.016 | [2] 0.013 | [3] 0.013 | [4] 0.04 | [5] -0.029 | [10] -0.029 | [6] 0.037 | [7] -0.012 | [11] -0.041 | [8] 0.003 | [9] -0.012

GPAT3 (UniProt Q53EU6)
inactive: [1] 0.224 | [2] 0.153 | [3] 0.04 | [4] 0.142 | [5] -0.138 | [6] 0.016 | [7] 0.026 | [11] -0.155 | [8] -0.057 | [9] 0.068

GPAA1 (UniProt O43292)
inactive: [1] -0.016 | [2] -0.022 | [3] -0.077 | [4] -0.009 | [5] 0.046 | [10] 0.001 | [6] 0.016 | [7] 0.033 | [11] -0.013 | [8] -0.054 | [9] -0.018

GPATCH8 (UniProt Q9UKJ3)
inactive: [1] 0.008 | [2] -0.023 | [3] -0.059 | [4] 0.071 | [5] 0.005 | [10] 0.116 | [6] 0.008 | [7] 0.018 | [11] 0.023 | [8] -0.069 | [9] -0.073

GNPTAB (UniProt Q3T906)
inactive: [1] -0.061 | [2] -0.012 | [3] -0.092 | [4] -0.075 | [5] -0.238 | [10] -0.101 | [6] -0.048 | [7] 0.101 | [11] -0.161 | [8] 0.239 | [9] -0.167

GPN1 isoform 5 (UniProt Q9HCN4)
inactive: [1] -0.061 | [2] -0.026 | [3] 0.022 | [4] 0.056 | [5] -0.035 | [10] 0.045 | [6] 0.029 | [7] -0.031 | [11] -0.039 | [8] -0.037 | [9] 0.043

GLRX5 (UniProt Q86SX6)
inactive: [1] -0.05 | [2] 0.005 | [3] 0.042 | [4] 0.083 | [5] 0.015 | [6] -0.022 | [7] -0.03 | [11] -0.217 | [8] -0.018 | [9] -0.123

GNMT (UniProt Q14749)
inactive: [1] -0.03 | [2] 0.054 | [3] -0.102 | [4] -0.446 | [5] 0.045 | [10] 0.502 | [6] 0.032 | [7] -0.051 | [8] -0.068 | [9] 0.096

GMDS (UniProt O60547)
inactive: [1] 0.007 | [2] -0.011 | [3] -0.017 | [4] 0.038 | [5] -0.035 | [10] -0.002 | [6] 0.012 | [7] 0.019 | [11] -0.027 | [8] -0.019 | [9] -0.039

2 records drawn at random from those above, as already listed:
GID8 (UniProt Q9NWU2)
inactive: [1] -0.038 | [2] -0.067 | [3] -0.041 | [4] -0.023 | [5] 0.056 | [10] -0.042 | [6] 0.022 | [7] 0.106 | [11] -0.049 | [8] -0.016 | [9] -0.004

GNMT (UniProt Q14749)
inactive: [1] -0.03 | [2] 0.054 | [3] -0.102 | [4] -0.446 | [5] 0.045 | [10] 0.502 | [6] 0.032 | [7] -0.051 | [8] -0.068 | [9] 0.096

Next part:

GINS1 (UniProt Q14691)
inactive: [1] -0.108 | [2] -0.026 | [3] -0.146 | [4] -0.002 | [5] 0.038 | [10] 0.08 | [6] 0.012 | [7] -0.074 | [11] -0.054 | [8] -0.024 | [9] -0.026

GRHPR (UniProt Q9UBQ7)
inactive: [1] -0.067 | [2] 0.076 | [3] -0.032 | [4] 0.039 | [5] -0.039 | [10] 0.03 | [6] -0.008 | [7] -0.014 | [11] -0.033 | [8] -0.026 | [9] 0.027

GPR180 (UniProt Q86V85)
inactive: [1] 0.003 | [2] -0.214 | [3] -0.285 | [4] -0.076 | [5] 0.082 | [10] 0.027 | [7] -0.079 | [11] 0.016

GPD1 (UniProt P21695)
inactive: [1] 0.067 | [2] 0 | [3] 0.059 | [4] -0.067 | [5] -0.068 | [10] -0.035 | [7] -0.16 | [11] -0.157

GNB1L (UniProt Q9BYB4)
inactive: [1] -0.013 | [2] -0.022 | [3] -0.026 | [4] 0.043 | [5] -0.008 | [10] -0.017 | [6] -0.014 | [7] -0.005 | [11] 0.002 | [8] 0.01 | [9] -0.037

GNA11 (UniProt P29992)
inactive: [1] 0.027 | [2] 0.042 | [3] 0.029 | [4] -0.041 | [5] -0.08 | [10] -0.025 | [6] -0.068 | [7] 0.018 | [11] -0.012 | [8] 0 | [9] 0.069

GNA12 (UniProt Q03113)
inactive: [1] -0.108 | [2] -0.372 | [3] -0.231 | [4] -0.176 | [5] -0.071 | [10] -0.197 | [6] -0.184 | [7] 0.042 | [11] -0.164 | [8] -0.107 | [9] -0.151

GPN2 (UniProt Q9H9Y4)
inactive: [1] 0.008 | [2] 0.008 | [3] 0.026 | [4] 0.027 | [5] 0.031 | [10] 0.023 | [6] -0.048 | [7] 0.063 | [8] -0.024 | [9] -0.017

GRIPAP1 (UniProt Q4V328)
inactive: [1] 0.086 | [2] -0.049 | [3] 0.004 | [4] 0.004 | [5] 0.068 | [10] 0.068 | [6] 0.083 | [7] 0.158 | [11] 0.11 | [8] -0.009 | [9] -0.012

GLO1 (UniProt Q04760)
inactive: [1] 0.04 | [2] 0.015 | [3] 0.014 | [4] 0.053 | [5] 0.015 | [10] -0.019 | [6] -0.002 | [7] -0.001 | [11] -0.038 | [8] 0.03 | [9] -0.034

GOSR2 isoform 2 (UniProt O14653)
inactive: [1] 0.021 | [2] 0.089 | [3] -0.144 | [4] 0.055 | [5] -0.021 | [10] 0.087 | [6] -0.002 | [7] -0.011 | [8] 0.231 | [9] -0.095

GMPPA (UniProt Q96IJ6)
inactive: [1] 0.015 | [2] 0.062 | [3] -0.056 | [4] 0 | [5] -0.005 | [10] 0.002 | [6] 0.012 | [7] -0.024 | [11] -0.039 | [8] -0.004 | [9] -0.01

GOT2 (UniProt P00505)
inactive: [1] -0.023 | [2] -0.024 | [3] 0.038 | [4] 0.026 | [5] -0.016 | [10] -0.023 | [6] 0.026 | [7] -0.02 | [11] -0.013 | [8] 0.015 | [9] -0.004

GON4L (UniProt Q3T8J9)
inactive: [1] -0.03 | [2] -0.076 | [3] 0.101 | [5] -0.039 | [6] 0.326 | [7] 0.094 | [11] -0.031 | [8] -0.118 | [9] 0.072

GLOD4 isoform 2 (UniProt Q9HC38)
inactive: [1] -0.034 | [2] -0.07 | [3] -0.165 | [4] -0.052 | [5] 0.032 | [10] 0.025 | [6] 0.008 | [7] -0.017 | [11] -0.054 | [8] -0.013 | [9] -0.012

GOLGA2 (UniProt Q08379)
inactive: [1] 0.048 | [2] -0.068 | [3] 0.047 | [4] 0.046 | [5] 0.007 | [10] 0.076 | [6] 0.018 | [7] 0.151 | [11] 0.053 | [8] -0.071 | [9] 0.042
